According to article PMC12339988:
These are yes or no findings as the source states them, for the method shown. For some assays here: Binding seen in cells or lysates may run through a third protein. Some results given as binding are weak or reduced against the parent protein; the word gives no strength. For some assays here: Tags and fused reporters may be left off the sequences shown. Values belong to the binder of their own block, whether it stands above or below them.

The chains behind the UniProt entries cited, without tags or fusion partners. Where a name states a change or a piece, a line headed by the entry shows the natural chain unless it says otherwise. A line that says so, or that is headed by a name, gives the form on record, which may keep a tag or linker. Residues count along the entry.
UniProt P33993: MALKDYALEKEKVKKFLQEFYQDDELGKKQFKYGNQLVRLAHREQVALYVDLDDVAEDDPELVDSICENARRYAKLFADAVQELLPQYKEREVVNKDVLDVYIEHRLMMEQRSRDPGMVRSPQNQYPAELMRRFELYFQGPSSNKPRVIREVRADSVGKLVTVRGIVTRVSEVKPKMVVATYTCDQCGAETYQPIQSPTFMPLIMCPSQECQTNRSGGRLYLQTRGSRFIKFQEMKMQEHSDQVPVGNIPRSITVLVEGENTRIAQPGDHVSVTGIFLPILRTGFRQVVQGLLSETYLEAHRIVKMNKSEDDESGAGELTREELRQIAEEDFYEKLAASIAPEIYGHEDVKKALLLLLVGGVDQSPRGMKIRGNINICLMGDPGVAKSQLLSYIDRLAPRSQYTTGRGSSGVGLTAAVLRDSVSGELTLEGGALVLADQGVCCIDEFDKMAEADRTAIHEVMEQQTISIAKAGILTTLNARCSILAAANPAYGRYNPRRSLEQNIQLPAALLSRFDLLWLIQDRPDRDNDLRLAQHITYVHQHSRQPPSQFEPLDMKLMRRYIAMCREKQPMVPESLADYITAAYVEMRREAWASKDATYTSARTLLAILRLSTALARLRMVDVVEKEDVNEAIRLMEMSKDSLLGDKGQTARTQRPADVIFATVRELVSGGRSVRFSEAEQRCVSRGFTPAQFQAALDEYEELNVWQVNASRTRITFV
GST-tagged truncated MCM7 fragment, N-terminal domain (amino acids 10-140): residues 10-140 of P33993
GST-tagged truncated MCM7 fragment, AAA domain (amino acids 373-526): residues 373-526 of P33993

Tests used:
[1] = target: FLAG/HA-tagged MCM7 (full length) (UniProt P33993); experiment: co-IP; serial truncations of SHCBP1 and full-length MCM7 co-expressed in HEK293T cells (Fig. 4H)
GST-tagged MCM7 = GST-tagged MCM7 (UniProt P33993); experiment: pull-down; GST/His pull-down; purified GST-tagged and His-tagged proteins mixed in 0.5 ml binding buffer (50 mM Tris-HCl pH 7.4, 150 mM NaCl, 0.5% Triton X-100) with Glutathione Sepharose 4B beads and HisPur Ni-NTA Resin overnight at 4 °C; Western blot with GST and His antibodies; both purified
[2] = target: GST-tagged truncated MCM7 fragment, N-terminal domain (amino acids 10-140) (UniProt P33993); experiment: as above
[3] = target: GST-tagged truncated MCM7 fragment, AAA domain (amino acids 373-526) (UniProt P33993); experiment: as above
[4] = target: minichromosome maintenance complex component 7 (MCM7), endogenous (human (endogenous in HepG2)) (UniProt P33993); experiment: co-IP; endogenous proteins in HepG2 lysate; anti-MCM7 antibody or isotype-matched control IgG, protein A/G-agarose beads, 4 °C; IP buffer 150 mM NaCl, 25 mM Tris-HCl pH 8.0, 1 mM EDTA, 1% Triton X-100, 0.5% Nonidet P-40

B2: His-tagged SHCBP1 truncation (amino acids 64-210) (domain or fragment, UniProt Q8NEM2 64-210)
chain: KTFFPEIFQTNQLLFYERFRAYQDYILADCKASEVQEFTAEFLEKVLEPSGWRAVWHTNVFKVLVEITDVDFAALKAVVRLAEPYLCDSQVSTFTMECMKELLDLKEHRLPLQELWVVFDDSGVFDQTALAIEHVRFFYQNIWRSWD
binding (GST-tagged MCM7): binds

B3: His-tagged full-length SHCBP1 (protein, UniProt Q8NEM2 1-672)
chain: MADGSLTGGGLEAAAMAPERMGWAVEQELASLEKGLFQDEDSCSDCSYRDKPGSSLQSFMPEGKTFFPEIFQTNQLLFYERFRAYQDYILADCKASEVQEFTAEFLEKVLEPSGWRAVWHTNVFKVLVEITDVDFAALKAVVRLAEPYLCDSQVSTFTMECMKELLDLKEHRLPLQELWVVFDDSGVFDQTALAIEHVRFFYQNIWRSWDEEEEDEYDYFVRCVEPRLRLHYDILEDRVPSGLIVDYHNLLSQCEESYRKFLNLRSSLSNCNSDSEQENISMVEGLKLYSEMEQLKQKLKLIENPLLRYVFGYQKNSNIQAKGVRSSGQKITHVVSSTMMAGLLRSLLTDRLCQEPGEEEREIQFHSDPLSAINACFEGDTVIVCPGHYVVHGTFSIADSIELEGYGLPDDIVIEKRGKGDTFVDCTGADIKISGIKFVQHDAVEGILIVHRGKTTLENCVLQCETTGVTVRTSAEFLMKNSDLYGAKGAGIEIYPGSQCTLSDNGIHHCKEGILIKDFLDEHYDIPKISMVNNIIHNNEGYGVVLVKPTIFSDLQENAEDGTEENKALKIQTSGEPDVAERVDLEELIECATGKMELCARTDPSEQVEGNCEIVNELIAASTQKGQIKKKRLSELGITQADDNLMSQEMFVGIVGNQFKWNGKGSFGTFLF
binding [2]: binds
binding [3]: binds

B5: SHCBP1 (amino acids 1-672), for Co-IP (protein, UniProt Q8NEM2 1-672)
chain: B3 chain
binding [1]: binds

B6: His-tagged SHCBP1 truncation (amino acids 64-562) (domain or fragment, UniProt Q8NEM2 64-562)
chain: KTFFPEIFQTNQLLFYERFRAYQDYILADCKASEVQEFTAEFLEKVLEPSGWRAVWHTNVFKVLVEITDVDFAALKAVVRLAEPYLCDSQVSTFTMECMKELLDLKEHRLPLQELWVVFDDSGVFDQTALAIEHVRFFYQNIWRSWDEEEEDEYDYFVRCVEPRLRLHYDILEDRVPSGLIVDYHNLLSQCEESYRKFLNLRSSLSNCNSDSEQENISMVEGLKLYSEMEQLKQKLKLIENPLLRYVFGYQKNSNIQAKGVRSSGQKITHVVSSTMMAGLLRSLLTDRLCQEPGEEEREIQFHSDPLSAINACFEGDTVIVCPGHYVVHGTFSIADSIELEGYGLPDDIVIEKRGKGDTFVDCTGADIKISGIKFVQHDAVEGILIVHRGKTTLENCVLQCETTGVTVRTSAEFLMKNSDLYGAKGAGIEIYPGSQCTLSDNGIHHCKEGILIKDFLDEHYDIPKISMVNNIIHNNEGYGVVLVKPTIFSDLQENAEDG
binding (GST-tagged MCM7): binds

B9: His-tagged SHCBP1 truncation (amino acids 355-562) (domain or fragment, UniProt Q8NEM2 355-562)
chain: EPGEEEREIQFHSDPLSAINACFEGDTVIVCPGHYVVHGTFSIADSIELEGYGLPDDIVIEKRGKGDTFVDCTGADIKISGIKFVQHDAVEGILIVHRGKTTLENCVLQCETTGVTVRTSAEFLMKNSDLYGAKGAGIEIYPGSQCTLSDNGIHHCKEGILIKDFLDEHYDIPKISMVNNIIHNNEGYGVVLVKPTIFSDLQENAEDG
binding (GST-tagged MCM7): binds

B10: His-tagged SHCBP1 truncation (amino acids 1-562) (domain or fragment, UniProt Q8NEM2 1-562)
chain: MADGSLTGGGLEAAAMAPERMGWAVEQELASLEKGLFQDEDSCSDCSYRDKPGSSLQSFMPEGKTFFPEIFQTNQLLFYERFRAYQDYILADCKASEVQEFTAEFLEKVLEPSGWRAVWHTNVFKVLVEITDVDFAALKAVVRLAEPYLCDSQVSTFTMECMKELLDLKEHRLPLQELWVVFDDSGVFDQTALAIEHVRFFYQNIWRSWDEEEEDEYDYFVRCVEPRLRLHYDILEDRVPSGLIVDYHNLLSQCEESYRKFLNLRSSLSNCNSDSEQENISMVEGLKLYSEMEQLKQKLKLIENPLLRYVFGYQKNSNIQAKGVRSSGQKITHVVSSTMMAGLLRSLLTDRLCQEPGEEEREIQFHSDPLSAINACFEGDTVIVCPGHYVVHGTFSIADSIELEGYGLPDDIVIEKRGKGDTFVDCTGADIKISGIKFVQHDAVEGILIVHRGKTTLENCVLQCETTGVTVRTSAEFLMKNSDLYGAKGAGIEIYPGSQCTLSDNGIHHCKEGILIKDFLDEHYDIPKISMVNNIIHNNEGYGVVLVKPTIFSDLQENAEDG
binding (GST-tagged MCM7): binds

B11: SHCBP1 (amino acids 1-562), for Co-IP (domain or fragment, UniProt Q8NEM2 1-562)
chain: B10 chain
binding [1]: binds

B13: His-tagged SHCBP1 truncation (amino acids 291-562) (domain or fragment, UniProt Q8NEM2 291-562)
chain: EMEQLKQKLKLIENPLLRYVFGYQKNSNIQAKGVRSSGQKITHVVSSTMMAGLLRSLLTDRLCQEPGEEEREIQFHSDPLSAINACFEGDTVIVCPGHYVVHGTFSIADSIELEGYGLPDDIVIEKRGKGDTFVDCTGADIKISGIKFVQHDAVEGILIVHRGKTTLENCVLQCETTGVTVRTSAEFLMKNSDLYGAKGAGIEIYPGSQCTLSDNGIHHCKEGILIKDFLDEHYDIPKISMVNNIIHNNEGYGVVLVKPTIFSDLQENAEDG
binding (GST-tagged MCM7): binds

Results, then the binder that gave them:

binding [1]: binds
B1: SHCBP1 (amino acids 64-210), for Co-IP (domain or fragment, UniProt Q8NEM2 64-210)
chain: B2 chain

binding [4]: binds
B4: SHCBP1, endogenous (protein, UniProt Q8NEM2 1-672)
chain: B3 chain

binding [1]: binds
B7: SHCBP1 (amino acids 64-562), for Co-IP (domain or fragment, UniProt Q8NEM2 64-562)
chain: B6 chain

binding [1]: binds
B8: SHCBP1 (amino acids 355-562), for Co-IP (domain or fragment, UniProt Q8NEM2 355-562)
chain: B9 chain

binding [1]: binds
B12: SHCBP1 (amino acids 291-562), for Co-IP (domain or fragment, UniProt Q8NEM2 291-562)
chain: B13 chain
